The target in assay [1] is Fg-HAUSP (expressed in 293T cells) (human) (UniProt Q93009). In words: co-IP; 293T cells transfected with tagged constructs, IP and immunoblot; in some panels with co-expressed LATS1/LATS2 or MST1/MST2. Background: Immunoblotting shows a protein as a band on a membrane.
Assay [2] deals with endogenous Yap (human (endogenous in 293T)) (UniProt P46937). In words: co-IP; endogenous proteins from 293T cells; lysate of one 10 cm plate divided for IP with control IgG or Yap/HAUSP antibodies.
Assay [3] has as its target endogenous HAUSP (human (endogenous in 293T)) (UniProt Q93009). Described as above.
The target in a further assay is T1, Fg-Usp7 (Drosophila) (UniProt Q9VYQ8).
T1 sequence: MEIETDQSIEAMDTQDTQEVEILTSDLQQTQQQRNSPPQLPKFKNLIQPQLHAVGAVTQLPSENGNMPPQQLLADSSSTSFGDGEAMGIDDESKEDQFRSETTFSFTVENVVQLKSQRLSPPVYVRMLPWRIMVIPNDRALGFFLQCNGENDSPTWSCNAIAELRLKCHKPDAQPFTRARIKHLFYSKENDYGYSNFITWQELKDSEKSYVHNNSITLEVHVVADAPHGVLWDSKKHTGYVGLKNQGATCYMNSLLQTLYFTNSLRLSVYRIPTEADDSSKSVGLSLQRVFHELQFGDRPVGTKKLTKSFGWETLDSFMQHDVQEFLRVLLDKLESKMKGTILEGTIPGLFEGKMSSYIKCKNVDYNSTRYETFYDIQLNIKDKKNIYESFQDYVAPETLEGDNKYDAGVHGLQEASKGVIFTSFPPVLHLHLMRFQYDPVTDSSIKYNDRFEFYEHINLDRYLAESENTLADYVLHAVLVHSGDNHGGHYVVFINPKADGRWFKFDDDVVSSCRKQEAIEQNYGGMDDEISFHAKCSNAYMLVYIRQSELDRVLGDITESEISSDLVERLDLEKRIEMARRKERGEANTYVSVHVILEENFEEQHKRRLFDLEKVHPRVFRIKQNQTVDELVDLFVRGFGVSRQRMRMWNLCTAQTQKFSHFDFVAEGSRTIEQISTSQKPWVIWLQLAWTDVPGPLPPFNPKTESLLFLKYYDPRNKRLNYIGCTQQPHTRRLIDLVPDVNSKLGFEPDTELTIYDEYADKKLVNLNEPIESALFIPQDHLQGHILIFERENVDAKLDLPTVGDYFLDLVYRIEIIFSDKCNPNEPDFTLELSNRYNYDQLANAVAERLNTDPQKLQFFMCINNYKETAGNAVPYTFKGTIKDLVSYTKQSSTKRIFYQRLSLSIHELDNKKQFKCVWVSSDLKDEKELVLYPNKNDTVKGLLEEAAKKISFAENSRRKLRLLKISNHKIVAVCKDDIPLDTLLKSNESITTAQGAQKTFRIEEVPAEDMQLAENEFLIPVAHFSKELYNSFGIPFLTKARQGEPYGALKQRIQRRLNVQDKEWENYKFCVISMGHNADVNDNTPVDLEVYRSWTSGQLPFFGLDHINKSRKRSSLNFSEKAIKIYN
In words: co-IP; S2 cells transfected with tagged constructs, harvested 48 h after transfection, IP and immunoblot; in some panels with co-expressed Hpo, Hpo-KD, Wts or Wts-KD.

The chains behind the UniProt entries cited, without tags or fusion partners.
UniProt Q93009: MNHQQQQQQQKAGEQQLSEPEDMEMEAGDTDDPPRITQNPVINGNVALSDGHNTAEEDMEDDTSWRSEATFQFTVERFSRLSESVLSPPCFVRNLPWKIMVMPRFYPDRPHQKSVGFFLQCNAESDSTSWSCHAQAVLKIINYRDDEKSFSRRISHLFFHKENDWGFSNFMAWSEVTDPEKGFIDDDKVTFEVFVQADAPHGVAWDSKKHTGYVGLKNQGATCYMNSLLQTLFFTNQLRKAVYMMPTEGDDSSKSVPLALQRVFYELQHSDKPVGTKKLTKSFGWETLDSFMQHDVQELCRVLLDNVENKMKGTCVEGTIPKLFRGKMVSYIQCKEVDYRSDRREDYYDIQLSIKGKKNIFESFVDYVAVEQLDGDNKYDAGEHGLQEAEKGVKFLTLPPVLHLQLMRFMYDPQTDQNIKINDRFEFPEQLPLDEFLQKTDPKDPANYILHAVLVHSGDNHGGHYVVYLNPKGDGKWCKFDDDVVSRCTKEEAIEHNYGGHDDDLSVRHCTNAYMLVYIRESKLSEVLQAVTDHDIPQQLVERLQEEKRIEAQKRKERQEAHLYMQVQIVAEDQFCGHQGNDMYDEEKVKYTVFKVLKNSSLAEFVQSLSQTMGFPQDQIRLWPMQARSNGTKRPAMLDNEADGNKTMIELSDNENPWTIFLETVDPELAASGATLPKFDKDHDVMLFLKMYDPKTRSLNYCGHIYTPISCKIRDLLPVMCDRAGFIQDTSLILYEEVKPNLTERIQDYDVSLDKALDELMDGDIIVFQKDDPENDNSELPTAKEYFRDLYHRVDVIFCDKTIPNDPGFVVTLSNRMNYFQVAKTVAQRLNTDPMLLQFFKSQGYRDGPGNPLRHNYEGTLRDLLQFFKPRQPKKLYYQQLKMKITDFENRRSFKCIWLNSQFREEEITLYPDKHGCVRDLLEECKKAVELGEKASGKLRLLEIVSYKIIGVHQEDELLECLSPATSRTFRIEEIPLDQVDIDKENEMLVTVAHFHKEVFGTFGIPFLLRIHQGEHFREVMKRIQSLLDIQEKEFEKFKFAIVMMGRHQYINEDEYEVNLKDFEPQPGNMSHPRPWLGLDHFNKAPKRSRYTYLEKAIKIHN
UniProt P46937: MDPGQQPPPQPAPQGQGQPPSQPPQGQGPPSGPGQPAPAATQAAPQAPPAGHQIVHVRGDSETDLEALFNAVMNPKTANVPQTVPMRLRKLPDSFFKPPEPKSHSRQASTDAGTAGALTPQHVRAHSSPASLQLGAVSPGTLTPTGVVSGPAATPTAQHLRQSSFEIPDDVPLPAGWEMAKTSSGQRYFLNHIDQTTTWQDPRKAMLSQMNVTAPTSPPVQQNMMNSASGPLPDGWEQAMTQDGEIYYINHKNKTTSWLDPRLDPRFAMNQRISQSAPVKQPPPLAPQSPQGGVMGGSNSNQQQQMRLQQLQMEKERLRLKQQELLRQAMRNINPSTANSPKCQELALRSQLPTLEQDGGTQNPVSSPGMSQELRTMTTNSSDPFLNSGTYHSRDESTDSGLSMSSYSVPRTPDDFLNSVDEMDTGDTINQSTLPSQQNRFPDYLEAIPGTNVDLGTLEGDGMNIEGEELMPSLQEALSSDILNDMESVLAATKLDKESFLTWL
UniProt P19538: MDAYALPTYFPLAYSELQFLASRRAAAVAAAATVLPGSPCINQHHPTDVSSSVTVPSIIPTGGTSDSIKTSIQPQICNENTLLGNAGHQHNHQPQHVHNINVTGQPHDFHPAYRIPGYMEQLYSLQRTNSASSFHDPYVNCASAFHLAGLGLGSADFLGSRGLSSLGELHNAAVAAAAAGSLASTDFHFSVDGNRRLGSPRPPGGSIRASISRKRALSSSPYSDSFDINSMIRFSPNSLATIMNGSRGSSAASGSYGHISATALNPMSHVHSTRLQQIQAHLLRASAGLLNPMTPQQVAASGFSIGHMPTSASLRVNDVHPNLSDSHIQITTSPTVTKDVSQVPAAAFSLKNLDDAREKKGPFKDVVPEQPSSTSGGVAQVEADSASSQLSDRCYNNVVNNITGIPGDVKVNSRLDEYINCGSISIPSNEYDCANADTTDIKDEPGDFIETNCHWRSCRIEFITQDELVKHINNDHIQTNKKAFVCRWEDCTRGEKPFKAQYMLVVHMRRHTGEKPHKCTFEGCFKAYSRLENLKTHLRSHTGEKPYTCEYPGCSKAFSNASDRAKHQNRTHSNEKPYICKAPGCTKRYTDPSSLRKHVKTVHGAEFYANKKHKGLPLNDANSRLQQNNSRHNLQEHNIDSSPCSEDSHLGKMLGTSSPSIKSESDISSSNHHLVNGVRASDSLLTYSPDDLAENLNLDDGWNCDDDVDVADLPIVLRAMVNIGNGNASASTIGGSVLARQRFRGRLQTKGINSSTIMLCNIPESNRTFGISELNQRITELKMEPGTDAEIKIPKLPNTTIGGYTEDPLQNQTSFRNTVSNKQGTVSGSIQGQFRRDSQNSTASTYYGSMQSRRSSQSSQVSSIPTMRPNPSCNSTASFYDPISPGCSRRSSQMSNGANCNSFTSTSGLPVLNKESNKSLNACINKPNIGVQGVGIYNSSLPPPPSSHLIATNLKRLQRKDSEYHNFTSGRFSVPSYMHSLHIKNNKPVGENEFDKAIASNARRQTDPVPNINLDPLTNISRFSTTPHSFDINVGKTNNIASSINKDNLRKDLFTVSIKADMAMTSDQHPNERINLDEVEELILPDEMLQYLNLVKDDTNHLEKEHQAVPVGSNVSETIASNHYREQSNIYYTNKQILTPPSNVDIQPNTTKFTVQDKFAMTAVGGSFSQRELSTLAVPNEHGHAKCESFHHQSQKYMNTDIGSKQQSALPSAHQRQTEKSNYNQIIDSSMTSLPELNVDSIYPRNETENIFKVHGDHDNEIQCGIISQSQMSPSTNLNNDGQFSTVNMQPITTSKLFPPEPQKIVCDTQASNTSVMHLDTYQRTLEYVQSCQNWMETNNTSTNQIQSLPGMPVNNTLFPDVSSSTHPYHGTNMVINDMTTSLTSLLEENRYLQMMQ

The target of a further assay is T2, Myc-Yki (Drosophila) (UniProt Q45VV3).
T2 sequence: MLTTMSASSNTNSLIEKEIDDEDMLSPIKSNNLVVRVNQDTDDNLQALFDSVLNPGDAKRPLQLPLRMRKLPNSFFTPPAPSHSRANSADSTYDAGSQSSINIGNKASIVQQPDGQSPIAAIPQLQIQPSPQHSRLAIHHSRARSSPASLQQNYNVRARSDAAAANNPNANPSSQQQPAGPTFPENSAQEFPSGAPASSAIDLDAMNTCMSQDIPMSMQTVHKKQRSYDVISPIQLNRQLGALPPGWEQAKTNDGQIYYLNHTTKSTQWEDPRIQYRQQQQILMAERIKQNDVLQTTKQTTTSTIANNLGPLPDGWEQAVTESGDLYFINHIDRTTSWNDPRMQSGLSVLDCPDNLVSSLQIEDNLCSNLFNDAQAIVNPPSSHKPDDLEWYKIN
The description is as above.

In assay [4] the target is T3, endogenous Yki (Drosophila (endogenous in S2 cells)) (UniProt Q45VV3).
T3 sequence: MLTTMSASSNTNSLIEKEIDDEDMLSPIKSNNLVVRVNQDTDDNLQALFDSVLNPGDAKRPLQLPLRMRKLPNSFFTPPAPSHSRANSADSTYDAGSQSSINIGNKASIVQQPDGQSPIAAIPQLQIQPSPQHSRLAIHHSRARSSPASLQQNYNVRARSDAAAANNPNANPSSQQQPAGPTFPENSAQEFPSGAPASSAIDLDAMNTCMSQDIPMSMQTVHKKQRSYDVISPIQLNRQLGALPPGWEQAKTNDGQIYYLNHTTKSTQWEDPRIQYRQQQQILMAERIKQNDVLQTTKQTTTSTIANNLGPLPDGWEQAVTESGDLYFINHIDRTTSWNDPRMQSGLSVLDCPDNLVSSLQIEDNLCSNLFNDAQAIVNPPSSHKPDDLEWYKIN
In words: co-IP; endogenous proteins from S2 cells, IP and immunoblot.

Results are given in words; binding and its absence hold for the method and conditions named. In cells and extracts the contact can be indirect. Some results given as binding are weak or reduced against the parent protein; the word gives no strength. For part of these data: Sequences can lack the tags named with a protein.

Take Myc-Yap (from UniProt P46937 1-504): the binding result in assay [1] is listed as “binds”.
Take “endogenous HAUSP (from UniProt Q93009 1-1102) (enzyme)”: the binding entry in assay [2] is given as “binds”.
Take “endogenous Yap (from UniProt P46937 1-504)”: the binding entry in assay [3] is “binds”.
On to HA-Ci (from UniProt P19538 1-1397), for which the binding result in the assay with Fg-Usp7 (Drosophila) is reported as “binds”.

B1: Fg-Usp7 (enzyme, UniProt Q9VYQ8 1-1129)
chain: MEIETDQSIEAMDTQDTQEVEILTSDLQQTQQQRNSPPQLPKFKNLIQPQLHAVGAVTQLPSENGNMPPQQLLADSSSTSFGDGEAMGIDDESKEDQFRSETTFSFTVENVVQLKSQRLSPPVYVRMLPWRIMVIPNDRALGFFLQCNGENDSPTWSCNAIAELRLKCHKPDAQPFTRARIKHLFYSKENDYGYSNFITWQELKDSEKSYVHNNSITLEVHVVADAPHGVLWDSKKHTGYVGLKNQGATCYMNSLLQTLYFTNSLRLSVYRIPTEADDSSKSVGLSLQRVFHELQFGDRPVGTKKLTKSFGWETLDSFMQHDVQEFLRVLLDKLESKMKGTILEGTIPGLFEGKMSSYIKCKNVDYNSTRYETFYDIQLNIKDKKNIYESFQDYVAPETLEGDNKYDAGVHGLQEASKGVIFTSFPPVLHLHLMRFQYDPVTDSSIKYNDRFEFYEHINLDRYLAESENTLADYVLHAVLVHSGDNHGGHYVVFINPKADGRWFKFDDDVVSSCRKQEAIEQNYGGMDDEISFHAKCSNAYMLVYIRQSELDRVLGDITESEISSDLVERLDLEKRIEMARRKERGEANTYVSVHVILEENFEEQHKRRLFDLEKVHPRVFRIKQNQTVDELVDLFVRGFGVSRQRMRMWNLCTAQTQKFSHFDFVAEGSRTIEQISTSQKPWVIWLQLAWTDVPGPLPPFNPKTESLLFLKYYDPRNKRLNYIGCTQQPHTRRLIDLVPDVNSKLGFEPDTELTIYDEYADKKLVNLNEPIESALFIPQDHLQGHILIFERENVDAKLDLPTVGDYFLDLVYRIEIIFSDKCNPNEPDFTLELSNRYNYDQLANAVAERLNTDPQKLQFFMCINNYKETAGNAVPYTFKGTIKDLVSYTKQSSTKRIFYQRLSLSIHELDNKKQFKCVWVSSDLKDEKELVLYPNKNDTVKGLLEEAAKKISFAENSRRKLRLLKISNHKIVAVCKDDIPLDTLLKSNESITTAQGAQKTFRIEEVPAEDMQLAENEFLIPVAHFSKELYNSFGIPFLTKARQGEPYGALKQRIQRRLNVQDKEWENYKFCVISMGHNADVNDNTPVDLEVYRSWTSGQLPFFGLDHINKSRKRSSLNFSEKAIKIYN
In the case of B1, in the assay with Myc-Yki (Drosophila), the binding result is on record as “binds”.

B2: endogenous Usp7 (enzyme, UniProt Q9VYQ8 1-1129)
chain: MEIETDQSIEAMDTQDTQEVEILTSDLQQTQQQRNSPPQLPKFKNLIQPQLHAVGAVTQLPSENGNMPPQQLLADSSSTSFGDGEAMGIDDESKEDQFRSETTFSFTVENVVQLKSQRLSPPVYVRMLPWRIMVIPNDRALGFFLQCNGENDSPTWSCNAIAELRLKCHKPDAQPFTRARIKHLFYSKENDYGYSNFITWQELKDSEKSYVHNNSITLEVHVVADAPHGVLWDSKKHTGYVGLKNQGATCYMNSLLQTLYFTNSLRLSVYRIPTEADDSSKSVGLSLQRVFHELQFGDRPVGTKKLTKSFGWETLDSFMQHDVQEFLRVLLDKLESKMKGTILEGTIPGLFEGKMSSYIKCKNVDYNSTRYETFYDIQLNIKDKKNIYESFQDYVAPETLEGDNKYDAGVHGLQEASKGVIFTSFPPVLHLHLMRFQYDPVTDSSIKYNDRFEFYEHINLDRYLAESENTLADYVLHAVLVHSGDNHGGHYVVFINPKADGRWFKFDDDVVSSCRKQEAIEQNYGGMDDEISFHAKCSNAYMLVYIRQSELDRVLGDITESEISSDLVERLDLEKRIEMARRKERGEANTYVSVHVILEENFEEQHKRRLFDLEKVHPRVFRIKQNQTVDELVDLFVRGFGVSRQRMRMWNLCTAQTQKFSHFDFVAEGSRTIEQISTSQKPWVIWLQLAWTDVPGPLPPFNPKTESLLFLKYYDPRNKRLNYIGCTQQPHTRRLIDLVPDVNSKLGFEPDTELTIYDEYADKKLVNLNEPIESALFIPQDHLQGHILIFERENVDAKLDLPTVGDYFLDLVYRIEIIFSDKCNPNEPDFTLELSNRYNYDQLANAVAERLNTDPQKLQFFMCINNYKETAGNAVPYTFKGTIKDLVSYTKQSSTKRIFYQRLSLSIHELDNKKQFKCVWVSSDLKDEKELVLYPNKNDTVKGLLEEAAKKISFAENSRRKLRLLKISNHKIVAVCKDDIPLDTLLKSNESITTAQGAQKTFRIEEVPAEDMQLAENEFLIPVAHFSKELYNSFGIPFLTKARQGEPYGALKQRIQRRLNVQDKEWENYKFCVISMGHNADVNDNTPVDLEVYRSWTSGQLPFFGLDHINKSRKRSSLNFSEKAIKIYN
Turning to B2, the binding result in assay [4] was “binds”.
